{"source": "PubChem BioAssay AID1508597 (Cure First, 2020)", "aim": "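Knock-downs altering ovarian cancer cell survival with or without PARP inhibitor rucaparib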 (primary screen)", "cells": "human ovarian carcinoma lines grown from tumours: OCI-P5x (papillary serous) and OCI-C5x (clear cell)", "knock-down reagent": "siRNA pool against human genes, 1.25 pmol siRNA per well", "time to read-out": "72 h or 96 h, depending on the cell culture", "treatment": "rucaparib 20 µM (about IC30) or vehicle, present until read-out", "rucaparib or vehicle": "Rucaparib", "cell line": "OCI-C5x (clear cell)", "detection": "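Luminescent ATP-based viability assay read 72 or 96 h after transfection, depending on culture, given as normalised percent viability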", "direction": "viability, normalised: higher = more viable cells remaining", "rule for the call": "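a well counts as a hit if its normalised viability is under 80 percent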", "calls": "active = viability under 80%; inactive = viability 80% or more", "note": "This is an unselected part of the about 2,100 reagents, under one of the conditions tested. 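Calls flag viability under 80% in either arm, not effects specific to rucaparib; the reference for percent is not stated.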 Some reagents were tested in more than one well and are listed for each. Reagent sequences are not shown. Not stated in the record: the 100% reference."}
The first 5 records, ahead of the listing:
{"Target gene":"CLDN16 (claudin 16)","PubChem SID":"SID405528129","technical replicate":"1","viability, normalised (%)":34.1,"Call":"active"}
{"Target gene":"CLDN16 (claudin 16)","PubChem SID":"SID405528129","technical replicate":"2","viability, normalised (%)":40.6,"Call":"active"}
{"Target gene":"CLDN16 (claudin 16)","PubChem SID":"SID405528129","technical replicate":"3","viability, normalised (%)":24.7,"Call":"active"}
{"Target gene":"HMGB2 (high mobility group box 2)","PubChem SID":"SID405526878","technical replicate":"1","viability, normalised (%)":76.7,"Call":"active"}
{"Target gene":"HMGB2 (high mobility group box 2)","PubChem SID":"SID405526878","technical replicate":"1","viability, normalised (%)":57.8,"Call":"active"}

The list itself, from the first entry:
{"Target gene":"CLDN16 (claudin 16)","PubChem SID":"SID405528129","technical replicate":"1","viability, normalised (%)":34.1,"Call":"active"}
{"Target gene":"CLDN16 (claudin 16)","PubChem SID":"SID405528129","technical replicate":"2","viability, normalised (%)":40.6,"Call":"active"}
{"Target gene":"CLDN16 (claudin 16)","PubChem SID":"SID405528129","technical replicate":"3","viability, normalised (%)":24.7,"Call":"active"}
{"Target gene":"HMGB2 (high mobility group box 2)","PubChem SID":"SID405526878","technical replicate":"1","viability, normalised (%)":76.7,"Call":"active"}
{"Target gene":"HMGB2 (high mobility group box 2)","PubChem SID":"SID405526878","technical replicate":"1","viability, normalised (%)":57.8,"Call":"active"}
{"Target gene":"HMGB2 (high mobility group box 2)","PubChem SID":"SID405526878","technical replicate":"2","viability, normalised (%)":49.5,"Call":"active"}
{"Target gene":"HMGB2 (high mobility group box 2)","PubChem SID":"SID405526878","technical replicate":"2","viability, normalised (%)":60.5,"Call":"active"}
{"Target gene":"HMGB2 (high mobility group box 2)","PubChem SID":"SID405526878","technical replicate":"3","viability, normalised (%)":52.6,"Call":"active"}
{"Target gene":"HMGB2 (high mobility group box 2)","PubChem SID":"SID405526878","technical replicate":"3","viability, normalised (%)":67.5,"Call":"active"}
{"Target gene":"FECH (ferrochelatase)","PubChem SID":"SID405526782","technical replicate":"1","viability, normalised (%)":42,"Call":"active"}
{"Target gene":"FECH (ferrochelatase)","PubChem SID":"SID405526782","technical replicate":"2","viability, normalised (%)":57,"Call":"active"}
{"Target gene":"FECH (ferrochelatase)","PubChem SID":"SID405526782","technical replicate":"3","viability, normalised (%)":39.5,"Call":"active"}
{"Target gene":"ASF1B (anti-silencing function 1B histone chaperone)","PubChem SID":"SID405527989","technical replicate":"1","viability, normalised (%)":49.6,"Call":"active"}
{"Target gene":"ASF1B (anti-silencing function 1B histone chaperone)","PubChem SID":"SID405527989","technical replicate":"2","viability, normalised (%)":24.2,"Call":"active"}
{"Target gene":"ASF1B (anti-silencing function 1B histone chaperone)","PubChem SID":"SID405527989","technical replicate":"3","viability, normalised (%)":54.4,"Call":"active"}
{"Target gene":"ERCC6 (ERCC excision repair 6, chromatin remodeling factor)","PubChem SID":"SID405528388","technical replicate":"1","viability, normalised (%)":34.7,"Call":"active"}
{"Target gene":"ERCC6 (ERCC excision repair 6, chromatin remodeling factor)","PubChem SID":"SID405528388","technical replicate":"2","viability, normalised (%)":37.7,"Call":"active"}
{"Target gene":"ERCC6 (ERCC excision repair 6, chromatin remodeling factor)","PubChem SID":"SID405528388","technical replicate":"3","viability, normalised (%)":40.2,"Call":"active"}
{"Target gene":"TBL1Y (transducin beta like 1 Y-linked)","PubChem SID":"SID405526536","technical replicate":"1","viability, normalised (%)":48.3,"Call":"active"}
{"Target gene":"TBL1Y (transducin beta like 1 Y-linked)","PubChem SID":"SID405526536","technical replicate":"2","viability, normalised (%)":59.6,"Call":"active"}
{"Target gene":"TBL1Y (transducin beta like 1 Y-linked)","PubChem SID":"SID405526536","technical replicate":"3","viability, normalised (%)":48,"Call":"active"}
{"Target gene":"FOXA2 (forkhead box A2)","PubChem SID":"SID405526793","technical replicate":"1","viability, normalised (%)":31,"Call":"active"}
{"Target gene":"FOXA2 (forkhead box A2)","PubChem SID":"SID405526793","technical replicate":"2","viability, normalised (%)":29.8,"Call":"active"}
{"Target gene":"FOXA2 (forkhead box A2)","PubChem SID":"SID405526793","technical replicate":"3","viability, normalised (%)":34,"Call":"active"}
{"Target gene":"GALK1 (galactokinase 1)","PubChem SID":"SID405527523","technical replicate":"1","viability, normalised (%)":48.8,"Call":"active"}
{"Target gene":"GALK1 (galactokinase 1)","PubChem SID":"SID405527523","technical replicate":"2","viability, normalised (%)":59.2,"Call":"active"}
{"Target gene":"GALK1 (galactokinase 1)","PubChem SID":"SID405527523","technical replicate":"3","viability, normalised (%)":51.7,"Call":"active"}
{"Target gene":"DDB2 (damage specific DNA binding protein 2)","PubChem SID":"SID405526396","technical replicate":"1","viability, normalised (%)":60.4,"Call":"active"}
{"Target gene":"DDB2 (damage specific DNA binding protein 2)","PubChem SID":"SID405526396","technical replicate":"1","viability, normalised (%)":48.9,"Call":"active"}
{"Target gene":"DDB2 (damage specific DNA binding protein 2)","PubChem SID":"SID405526396","technical replicate":"1","viability, normalised (%)":53.1,"Call":"active"}
{"Target gene":"DDB2 (damage specific DNA binding protein 2)","PubChem SID":"SID405526396","technical replicate":"2","viability, normalised (%)":44.2,"Call":"active"}
{"Target gene":"DDB2 (damage specific DNA binding protein 2)","PubChem SID":"SID405526396","technical replicate":"2","viability, normalised (%)":55.4,"Call":"active"}
{"Target gene":"DDB2 (damage specific DNA binding protein 2)","PubChem SID":"SID405526396","technical replicate":"2","viability, normalised (%)":55.9,"Call":"active"}
{"Target gene":"DDB2 (damage specific DNA binding protein 2)","PubChem SID":"SID405526396","technical replicate":"3","viability, normalised (%)":39.3,"Call":"active"}
{"Target gene":"DDB2 (damage specific DNA binding protein 2)","PubChem SID":"SID405526396","technical replicate":"3","viability, normalised (%)":65.1,"Call":"active"}
{"Target gene":"DDB2 (damage specific DNA binding protein 2)","PubChem SID":"SID405526396","technical replicate":"3","viability, normalised (%)":59.8,"Call":"active"}
{"Target gene":"RAPGEF3 (Rap guanine nucleotide exchange factor 3)","PubChem SID":"SID405527454","technical replicate":"1","viability, normalised (%)":47.7,"Call":"active"}
{"Target gene":"RAPGEF3 (Rap guanine nucleotide exchange factor 3)","PubChem SID":"SID405527454","technical replicate":"2","viability, normalised (%)":49.4,"Call":"active"}
{"Target gene":"RAPGEF3 (Rap guanine nucleotide exchange factor 3)","PubChem SID":"SID405527454","technical replicate":"3","viability, normalised (%)":66.5,"Call":"active"}
{"Target gene":"ALDH18A1 (aldehyde dehydrogenase 18 family member A1)","PubChem SID":"SID405527400","technical replicate":"1","viability, normalised (%)":39.2,"Call":"active"}
{"Target gene":"ALDH18A1 (aldehyde dehydrogenase 18 family member A1)","PubChem SID":"SID405527400","technical replicate":"2","viability, normalised (%)":29.3,"Call":"active"}
{"Target gene":"ALDH18A1 (aldehyde dehydrogenase 18 family member A1)","PubChem SID":"SID405527400","technical replicate":"3","viability, normalised (%)":40.2,"Call":"active"}
